The whole screen tested about 31,000 sequences, of which about 1,400 (4.5%) were called active.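 Rule for the calls: active = median seed-adjusted z-score above 1 or below -1; inactive = the rest.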 The list shows a part of the results.
Experiment: Novel Modifiers of Survival Motor Neuron (SMN) Protein: Gene Identification via Genome-wide siRNA Screen;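 note: luminescence tracks full-length SMN protein made from the SMN2 reporter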
Details: HEK293T SMN2-luciferase reporter, siRNA knockdown, 72 h; actives lie on both sides
Procedure, shortened: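 HEK293T cells stably expressing an SMN2 splicing/cDNA-luciferase reporter were reverse-transfected with a druggable-genome siRNA library and read by luminescence at 72 hours; hits defined by MAD score above 1.0 or below -1.0.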
In the case of GGAAGUAUUUCACGAAUUATT against HERC4, the median seed-adjusted z-score is reported as inactive: 0.00343. For GGCCUUCAGAGUACACUAATT against SYTL4, the median seed-adjusted z-score was inactive: 0.694. In the case of GCAGCAUUCAGUUCACUAATT against SLC4A9, the median seed-adjusted z-score is reported as inactive: 0. For CGGAAGGUGUAUGAACUGATT against ICAM1, the median seed-adjusted z-score was inactive: 0.345. For GGAAUUGUGACGAUCCUCATT against SEC11A, the median seed-adjusted z-score was inactive: -0.494. In the case of GCUCUCACCUUAAUCGACATT against ZNF187, the median seed-adjusted z-score is reported as inactive: 0.419. For GAAAGUGAUUGACCGAAAATT against TRIT1, the median seed-adjusted z-score was inactive: 0.794. For CGUUACCUCUGGUGACUGUTT against SLC7A13, the median seed-adjusted z-score was inactive: 0.121. For GAAGCAGGGUUAAAGCGGATT against PRDM2, the median seed-adjusted z-score was active: 1.12. For GGAUGAUGUAGUACGUAAATT against MPHOSPH10, the median seed-adjusted z-score was inactive: 0.374. With CCUCUGCUGACCUACCAAATT against ADAT2 the median seed-adjusted z-score was inactive: 0.604. In the case of GGGCUACCAUCUCCUUUCATT against SLC23A3, the median seed-adjusted z-score is reported as inactive: -0.254. With CGAGGAAUGCUAGAUCACATT against SLITRK3 the median seed-adjusted z-score was inactive: -0.564. In the case of CCAGGAUCCGGAUUCUGAATT against BPIL1, the median seed-adjusted z-score is reported as inactive: 0.261. For GAAUCUCCAGGGUUAUGAUTT against STRADA, the median seed-adjusted z-score was inactive: 0.415. For GAUGCUACCCUAUACGAGATT against TTC33, the median seed-adjusted z-score was inactive: 0.104. For GCCUAUCCUAGAACCAUCATT against KLK14, the median seed-adjusted z-score was inactive: -0.0998. In the case of CACUGGAAGCAGUAACUUUTT against BACE2, the median seed-adjusted z-score is reported as inactive: 0.0853. In the case of GGUUUAACGUGUACAACAATT against PCBD1, the median seed-adjusted z-score is reported as inactive: 0. With CAAAAGUGUAUAUAAACUUTT against NDUFS6 the median seed-adjusted z-score was inactive: -0.0128. For GAUACUACCUGGACACCGATT against FHOD1, the median seed-adjusted z-score was inactive: -0.114. For GAAGAACUCGAAUAUGUCATT against ASNSD1, the median seed-adjusted z-score was inactive: 0.437. In the case of CCAUGAACAUCGAUCGCAATT against EHMT2, the median seed-adjusted z-score is reported as inactive: 0.295. In the case of AGUGAAAAGCGGUGAAGAATT against SLC14A2, the median seed-adjusted z-score is reported as inactive: 0.00107. For CUAUUGGACAUAAUAGACATT against TYRP1, the median seed-adjusted z-score was inactive: 0.173. For GGAAUGUGGUAACAGGAGATT against GMPR2, the median seed-adjusted z-score was inactive: 0.232. In the case of GGUACUUAUGGGAUGCUCATT against NEUROD4, the median seed-adjusted z-score is reported as inactive: 0.0349. With GGAUCAUCAUCUGCAAUCATT against VHLL the median seed-adjusted z-score was inactive: -0.0852. For GCUGGAACUAUUAUCGUUATT against DNAJC10, the median seed-adjusted z-score was inactive: 0.0527. With CUCGACAAAUGGUCCUGUATT against ZNF598 the median seed-adjusted z-score was inactive: -0.303. For UGAGCAUGACUGAUUCCAATT against SFTPD, the median seed-adjusted z-score was inactive: 0.289. With CAGUCACAUCAGCAGGUCATT against SYT3 the median seed-adjusted z-score was inactive: 0.221. For GCUCCUUGCUUGCAUCCAUTT against MC4R, the median seed-adjusted z-score was inactive: 0.154. In the case of GGAUGAAAGCAAUCUGAGATT against ACP1, the median seed-adjusted z-score is reported as inactive: -0.277. For GGAAGUCAGCACUUACAUUTT against EEF1A1, the median seed-adjusted z-score was inactive: -0.755. With CAGCAAAGAUUUCCGUGAATT against ZFP161 the median seed-adjusted z-score was inactive: 0.154. With GGAUCAUUGUGAAGCAGCUTT against PARVB the median seed-adjusted z-score was inactive: -0.0102. With GUGACCAUCUUGGACAUUATT against CELSR1 the median seed-adjusted z-score was inactive: -0.466. For GCUUUGAGAGUGCCUCUGATT against REM1, the median seed-adjusted z-score was inactive: 0.231. For GGAGUAGAUGAAAACGAAATT against TLN2, the median seed-adjusted z-score was inactive: -0.0106. In the case of CAUCUACACUUUCUCUAAATT against TRIM6, the median seed-adjusted z-score is reported as inactive: -0.137. For GGCAGGAAGUCAAACCUAUTT against KLK2, the median seed-adjusted z-score was inactive: 0.0716. In the case of GUUUUGACCCUAUAGUUUATT against P2RY5, the median seed-adjusted z-score is reported as inactive: 0.0278. In the case of GCAUCUACUUUGACCGGGATT against PISD, the median seed-adjusted z-score is reported as inactive: 0.231. With CCGAAGACCUGUACCAGAATT against HLCS the median seed-adjusted z-score was inactive: 0.0646. With CAAAUAUGAUGGACAUAGATT against LOXL3 the median seed-adjusted z-score was inactive: 0.517. For GGAGGUCACCGUUUGGGAUTT against DOC2B, the median seed-adjusted z-score was inactive: -0.423. For GGUUAUCUGUGAAGAGACUTT against ZNF784, the median seed-adjusted z-score was inactive: 0.291. In the case of CAGAAUAAAUCACACCCUATT against INSL3, the median seed-adjusted z-score is reported as inactive: -0.037. For CAGUCGACAUACUCGGAUATT against AKAP8L, the median seed-adjusted z-score was inactive: -0.334. In the case of GAGCUGAAGUCCUUAGAUATT against EIF2B3, the median seed-adjusted z-score is reported as inactive: -0.271. In the case of GCUACAAGGUUAUCGGUAUTT against GOT2, the median seed-adjusted z-score is reported as inactive: 0.205. For CUCUGGAACGUGACUUUUATT against PAFAH2, the median seed-adjusted z-score was inactive: 0.0216. For GACCAAAAUUUGGAUACAATT against CTSL2, the median seed-adjusted z-score was active: -1.04. For GAUGUUGUCUUGCAACGAATT against MAGI3, the median seed-adjusted z-score was inactive: 0.202. With GCAAGAUUUUUACCGCAGATT against HSPA13 the median seed-adjusted z-score was inactive: 0. For GGAUCUUUGUGAGUCUGAATT against ANKZF1, the median seed-adjusted z-score was inactive: 0.176. With GAGUGGAAGUUAUCUGUCATT against WBSCR22 the median seed-adjusted z-score was inactive: -0.21. With GUGGUAAGGUGUUCACUGATT against PATZ1 the median seed-adjusted z-score was inactive: -0.57. With CGACAACUGCAACUACGAUTT against PCSK7 the median seed-adjusted z-score was inactive: 0. For GAUACGCUAUGAACUCUCATT against RCE1, the median seed-adjusted z-score was active: -1.19. For CGAUCAGUGCUGCACUUAATT against APOF, the median seed-adjusted z-score was inactive: 0.0982. With CCCUGAUCAUAUUUGGGAATT against NPSR1 the median seed-adjusted z-score was inactive: -0.314. In the case of UGUCAGAGACUGGACCUUATT against ZNF238, the median seed-adjusted z-score is reported as inactive: -0.491. For GGAGCUCACAUUUAUGGAATT against EXOSC5, the median seed-adjusted z-score was inactive: 0.109. In the case of GGAGAUUAAUGGGCACAAUTT against MYO18A, the median seed-adjusted z-score is reported as inactive: 0.174. With GCCUUACUCAAGAUUGACATT against PCDH21 the median seed-adjusted z-score was inactive: -0.528. For GAGAAGUUUUUGAUACCUATT against GNPAT, the median seed-adjusted z-score was inactive: 0.111. For GCAGUGUAUAGAACGAGAATT against RNGTT, the median seed-adjusted z-score was active: -1.55. For GGAAAUUGUCCAUAAACUUTT against SMYD5, the median seed-adjusted z-score was inactive: -0.217. With GAGUUGCUGUGGUUUAUCATT against TYMS the median seed-adjusted z-score was inactive: -0.6. For GGAUGAGAUGAUCUCAGUATT against ZNF662, the median seed-adjusted z-score was inactive: 0.352. With GAGCAGAUUCAAUACCGAATT against CAPN13 the median seed-adjusted z-score was inactive: 0.208. With GAAUCAUCGUGGGACUUUUTT against GABBR1 the median seed-adjusted z-score was inactive: -0.0526. For CCGAUGGAUUUGCACUGUATT against PDE10A, the median seed-adjusted z-score was inactive: -0.382. In the case of GUAUUCGCUUUGCAUCUUUTT against SUV39H2, the median seed-adjusted z-score is reported as inactive: -0.279. For GGUCUUCGGUGUCCACUUUTT against CCR7, the median seed-adjusted z-score was inactive: 0.244. With GUAUUAAUGUUUUUGCAUATT against MARCKS the median seed-adjusted z-score was inactive: 0.379. With UGCUCACGGUUGACCGCUATT against GPR142 the median seed-adjusted z-score was inactive: -0.0636. For CAAAGAGAGUUAUGACUAUTT against VPS29, the median seed-adjusted z-score was inactive: -0.408. For GACUGGAAAUGAUUCGAGATT against RTCD1, the median seed-adjusted z-score was inactive: 0.0794. For GUGCAAGCGAGACAACAAATT against PCDH19, the median seed-adjusted z-score was inactive: 0. In the case of CAGACACUGUCGCUACGUATT against PCYT1B, the median seed-adjusted z-score is reported as inactive: 0.177. For GCAUCCACACAAGGGCAAATT against DUX1, the median seed-adjusted z-score was inactive: -0.62. With GCCUUACCAAGGUUACAGATT against C10orf2 the median seed-adjusted z-score was inactive: 0.31. In the case of GCCGGAAGAUGCAUAUGAATT against DYNC1LI2, the median seed-adjusted z-score is reported as inactive: -0.491. In the case of CAAUCAAGUUCACCGAAAATT against 2-Sep, the median seed-adjusted z-score is reported as inactive: 0.0349. In the case of CCAUCCAGUUGGUACCCAATT against ELN, the median seed-adjusted z-score is reported as inactive: -0.149. In the case of GGAACAUAGUCUUCAGGUATT against KIF20A, the median seed-adjusted z-score is reported as inactive: 0.906. For GAGCAACUUUGAUCAACGATT against PDGFRB, the median seed-adjusted z-score was inactive: -0.709. In the case of GCUUUGAAGAUGUAGGACATT against CYB5B, the median seed-adjusted z-score is reported as inactive: 0. In the case of GAAGAUAUGCAACAGCCUATT against UNC5B, the median seed-adjusted z-score is reported as inactive: -0.0207. In the case of GCGACACAGGGACUAUUUUTT against HES3, the median seed-adjusted z-score is reported as inactive: 0.284. With GGUGCUCUCGGUUGCACAATT against U2AF1 the median seed-adjusted z-score was active: 2.08. For GGAAGUGGUUAAAGCCUGATT against ALDH16A1, the median seed-adjusted z-score was inactive: 0.42. For CUUCUUCAACGGGACAGAATT against GGT5, the median seed-adjusted z-score was inactive: 0.307. With CGGAAGAGCUGUACAAAGATT against KLC3 the median seed-adjusted z-score was inactive: -0.156. In the case of CAGAAGAUAUCAUCAAGUUTT against ABLIM1, the median seed-adjusted z-score is reported as inactive: 0.115. For UGAGAGCUCUAGAUAUGAATT against ZNF768, the median seed-adjusted z-score was inactive: 0.169. With GUACUUGAAGGAAAUCGAATT against MCM6 the median seed-adjusted z-score was inactive: 0.266. For GCUCAGUUCUCGUCAAGGATT against ARIH2, the median seed-adjusted z-score was inactive: 0.0449. With GGAGGAGACCGCAAGUUGATT against BCL2L12 the median seed-adjusted z-score was inactive: -0.77. In the case of AGAUUAGAGUGAUUUGUGATT against LRRC55, the median seed-adjusted z-score is reported as inactive: 0.314. With GGGAAGCCGCCUAUACCAATT against TK1 the median seed-adjusted z-score was inactive: -0.0562. For GAGUGAAAGAUAUACUUCATT against CARD16, the median seed-adjusted z-score was inactive: 0.57. For GCAUGUCAACAUAUCUCAATT against ZNF143, the median seed-adjusted z-score was inactive: -0.357. In the case of AGACAAAUACCGAUACUUUTT against NDUFB9, the median seed-adjusted z-score is reported as inactive: -0.982.

From PubChem BioAssay AID1347426 (Functional Genomics Laboratory (NCATS/FGL), 2020)
